Test results reported in article PMC7031853.
No constants are given. Whether binding was seen depends on the method and setting. In cells and extracts the contact can be indirect. Some results given as binding are weak or reduced against the parent protein; the word gives no strength. Tags and fused reporters may be left off the sequences shown.

Molecular target: T1, LRIT3 (UniProt W8DXL4)
T1 sequence: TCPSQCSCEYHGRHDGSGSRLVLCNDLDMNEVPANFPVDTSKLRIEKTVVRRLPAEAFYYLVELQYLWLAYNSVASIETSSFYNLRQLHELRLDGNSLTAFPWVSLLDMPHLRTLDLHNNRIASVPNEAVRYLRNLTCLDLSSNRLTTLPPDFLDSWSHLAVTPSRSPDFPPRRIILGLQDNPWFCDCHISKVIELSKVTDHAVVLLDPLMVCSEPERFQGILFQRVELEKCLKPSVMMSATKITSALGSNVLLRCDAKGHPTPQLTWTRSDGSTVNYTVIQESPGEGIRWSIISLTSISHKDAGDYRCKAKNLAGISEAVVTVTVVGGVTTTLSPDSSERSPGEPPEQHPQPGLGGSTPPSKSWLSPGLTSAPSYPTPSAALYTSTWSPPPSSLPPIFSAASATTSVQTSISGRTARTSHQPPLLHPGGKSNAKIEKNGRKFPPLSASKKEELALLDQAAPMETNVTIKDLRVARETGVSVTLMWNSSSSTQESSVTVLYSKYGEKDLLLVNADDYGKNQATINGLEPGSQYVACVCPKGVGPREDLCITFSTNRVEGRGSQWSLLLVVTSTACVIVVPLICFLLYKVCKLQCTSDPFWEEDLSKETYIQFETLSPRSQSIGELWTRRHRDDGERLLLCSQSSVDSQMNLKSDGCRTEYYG
Assay: co-IP; HEK293T cells transfected with pLrit3, pNyx-EYFP or both; NP-40 lysates precipitated with anti-LRIT3 antibody and Dynabeads protein G at 4°C; washed with TBS with 0.3% Tween 20; blots probed with anti-LRIT3 and anti-GFP

B1: EYFP tagged nyctalopin fusion protein (protein, UniProt P83503 19-476)
chain: TEACLRACPAACTCSHVERGCSVRCDRAGLQRVPQEFPCEAASIDLDRNGLRILGERAFGTLPSLRRLSLRHNNLSFITPGAFKGLPRLAELRLAHNGELRYLHVRTFAALGRLRRLDLAACRLFSVPERLLAELPALRELTAFDNLFRRVPGALRGLANLTHAHFERSRIEAVASGSLLGMRRLRSLSLQANRVRAVHAGAFGDCGALEDLLLNDNLLATLPAAAFRGLRRLRTLNLGGNALGSVARAWFSDLAELELLYLDRNSITFVEEGAFQNLSGLLALHLNGNRLTVLSWAAFQPGFFLGRLFLFRNPWRCDCQLEWLRDWMEGSGRVADVACASPGSVAGQDLSQVVFERSSDGLCVDPDELNFTTSSPGPSPEPVATTVSRFSSLLSKLLAPRAPVEEVANTTWELVNVSLNDSFRSHAVMVFCYKATFLFTSCVLLSLAQYVVVGLQRE
- binding: binds
